Test results published in PubChem BioAssay AID2685 (National Center for Advancing Translational Sciences (NCATS), 2010).
The list shows a part of the results. The main result of the screen is listed elsewhere. These columns were measured beside it and carry no call. Most of these compounds were active or inconclusive in the main read-out, so they are no random draw. The note in brackets gives the kind of curve behind each potency; many fits are weak.

Assay: qHTS Assay for Lipid Storage Modulators in Drosophila S3 Cells;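 for cell number change: cells counted by Cell Tracker Red CMTPX staining in the red channel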
Details: BODIPY lipid droplet fluorescence, 18-24 h; for cell number change: measured here: cell count max response, cells fed with added oleic acid
Method in brief: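 Laser-scanning cytometry quantifies lipid droplet accumulation (500–530 nm total intensity; droplet/cell object ratio) in oleic acid-fed (400 uM added) Drosophila S3 cells treated with a concentration series. 20 uM Triacsin C defined 100% inhibition.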

[1] = measured here: cell number channel AC50, cells fed with added oleic acid
[2] = measured here: lipid fluorescence (Fed channel) AC50, cells fed with added oleic acid

Compound: COc1ccc(Cl)cc1NC(=O)CN(C)C(=O)CCCc1c[nH]c2ccccc12
- cell number change: -46.4%
- AC50 [1]: 29.1 µM [falling, single point]

Compound: O=C(O)c1cccc(NC(=O)c2cc(NC(=O)c3ccccc3)cc(NC(=O)c3ccccc3)c2)c1
- cell number change: -13.2%
- AC50 [1]: 0.0517 µM [falling, full curve, poor fit]

Compound: C=C(C(=O)Nc1ccccc1)c1ccc(C)cc1
- cell number change: -28.6%

Compound: O=C(O)c1ccccc1Cc1nc2cc(Cl)ccc2c(=O)[nH]1
- cell number change: -43.3%

Compound: Nc1cccc(CCc2nc3ccccc3[nH]2)c1
- cell number change: 17.9%
- AC50 [2]: 6.51 µM [rising, single point]

Compound: Cc1ccc(NC(=O)CN(C)C(=O)Cc2ccc3c(c2)CCC3)cc1
- cell number change: 70.3%
- AC50 [1]: 29.1 µM [rising, single point]

Compound: S=C(c1ccc(-c2ccc(Br)cc2)o1)N1CCCCC1
- cell number change: 16.6%
- AC50 [2]: 8.2 µM [rising, partial curve]

Compound: Cc1cccc(C)c1NC(=S)NCCCN1CCCC1=O
- AC50 [2]: 0.517 µM [falling, full curve]

Compound: CCN=c1scc(-c2ccc3c(c2)NC(=O)CO3)n1N=C1CCCC1
- cell number change: -18.7%
- AC50 [2]: 29.1 µM [falling, single point]

Compound: CSc1nc2ccc(NC(=O)c3nn(C(C)C)c(=O)c4ccccc34)cc2s1
- cell number change: 5.54%

Compound: CCN(CC)c1nc2c(c(=O)n(C)c(=O)n2C)n1CC(=O)c1ccccc1
- cell number change: 4.06%
- AC50 [2]: 0.231 µM [rising, full curve, poor fit]

Compound: C=CCNC(=O)c1ccccc1NC(=O)C1COc2ccccc2O1 (stereo unspecified)
- cell number change: 11.7%
- AC50 [2]: 29.1 µM [falling, single point]

Compound: COc1ccccc1N(C)S(=O)(=O)c1ccc(C(=O)Nc2nccs2)cc1
- cell number change: -40.5%
- AC50 [1]: 18.4 µM [falling, partial curve]
- AC50 [2]: 16.4 µM [falling, partial curve, poor fit]

Compound: Cc1ccc(-n2cc(C(=O)c3ccccc3O)cn2)cc1
- cell number change: 10.6%

Compound: CCOC(=O)C1=C2c3ccc4ccccc4c3CC(C)(C)N2C(=O)C1=O
- cell number change: 4.6%
- AC50 [1]: 6.51 µM [rising, single point]

Compound: O=C(CCCn1c(SCC(=O)Nc2ccccc2C(F)(F)F)nc2ccccc2c1=O)NCC1CCCO1 (stereo unspecified)
- cell number change: 30.5%
- AC50 [1]: 16.4 µM [rising, single point]

Compound: Cc1cc(C)nc(N/N=C/c2sccc2C)n1
- cell number change: -38.2%

Compound: O=C(COc1ccccc1F)NNC(=O)c1ccc(N2CCCCC2)c([N+](=O)[O-])c1
- cell number change: -6.61%
- AC50 [1]: 6.51 µM [rising, single point]
- AC50 [2]: 0.731 µM [rising, single point]

Compound: CSc1ccc(CN2CCC(N3CC(C)OC(C)C3)CC2)cc1 (stereo unspecified)
- cell number change: 19.7%
- AC50 [2]: 0.231 µM [rising, full curve, poor fit]

Compound: Fc1ccc(CNc2ccccn2)cc1
- cell number change: 13.2%
- AC50 [2]: 0.13 µM [rising, full curve, poor fit]

Compound: COC(=O)Nc1ncc(CN2CCCCC2)s1
- cell number change: -103%
- AC50 [1]: 23.1 µM [falling, partial curve]

Compound: CC(=O)c1ccc(OCC(O)COc2ccc(C(C)=O)cc2)cc1
- AC50 [1]: 6.51 µM [rising, single point]
- AC50 [2]: 6.51 µM [rising, single point]

Compound: O=C1c2ccccc2C(=O)N1CCc1csc(-c2cccc(F)c2)n1
- cell number change: 142%
- AC50 [1]: 11.6 µM [rising, partial curve]
- AC50 [2]: 13 µM [rising, partial curve]

Compound: Cc1ccc(NC(=O)CSc2nc3ccccc3c(=O)n2CCCN2CCCCC2)cc1C
- cell number change: -29.9%
- AC50 [2]: 14.6 µM [falling, partial curve]

Compound: COc1ccc(N2CCN(C(=O)CCS(=O)(=O)c3ccc4c(c3)NC(=O)C(C)S4)CC2)cc1 (stereo unspecified)
- cell number change: 4.89%
- AC50 [2]: 6.51 µM [rising, single point]

Compound: COc1ccc(NC(=O)c2ccc(NC(=O)C(C)C)cc2)c([N+](=O)[O-])c1
- cell number change: 6.11%
- AC50 [2]: 0.146 µM [rising, full curve, poor fit]

Compound: Clc1ccc(/C(Cc2nc3ccccc3[nH]2)=N\Nc2ccccc2)cc1
- cell number change: -45%
- AC50 [1]: 25.9 µM [falling, single point]
- AC50 [2]: 18.4 µM [falling, partial curve]

Compound: COc1cc(Cl)c(C)cc1NC(=O)CSc1nnc(-c2ccco2)n1CC(C)C
- cell number change: -20.3%
- AC50 [2]: 9.2 µM [rising, single point]

Compound: COc1ccc(S(=O)(=O)NCc2ccco2)cc1C(=O)N1CCCCC1
- cell number change: -2.63%
- AC50 [2]: 0.112 µM [falling, full curve, poor fit]

Compound: CN(C)C(CNC(=O)CCNS(=O)(=O)c1ccccc1C(F)(F)F)c1ccccc1 (stereo unspecified)
- cell number change: 8.03%

Compound: C=CCn1c(Oc2ccccc2)nc2c1c(=O)n(C)c(=O)n2C
- cell number change: 2.14%
- AC50 [2]: 0.164 µM [falling, full curve, poor fit]

Compound: CN1CCN(C(=O)c2cc(COc3ccccc3)on2)[C@@H](c2ccccc2)C1
- cell number change: 25%
- AC50 [1]: 0.731 µM [rising, full curve, poor fit]

Compound: Clc1ccc(-c2nsc(N3CCOCC3)n2)c(Cl)c1
- cell number change: 9.13%

Compound: CCCCCC(=O)NNC(=O)c1c(O)c2ccccc2n(CC)c1=O
- cell number change: -19.7%
- AC50 [2]: 32.6 µM [falling, single point]

Compound: COc1ccc([N+](=O)[O-])cc1NC(=O)c1ccc(CN(c2ccc(C)c(C)c2)S(C)(=O)=O)cc1
- cell number change: 11.8%
- AC50 [2]: 0.00411 µM [rising, full curve, poor fit]

Compound: NC1=NC(=O)CC(C(=O)NCc2ccccc2)S1 (stereo unspecified)
- cell number change: -19%
- AC50 [1]: 6.51 µM [falling, single point]
- AC50 [2]: 4.61 µM [falling, partial curve]

Compound: CCNC(=S)NNC(=O)CSc1nc2ccccc2[nH]1
- cell number change: 43.9%
- AC50 [1]: 2.31 µM [rising, full curve, poor fit]

Compound: CCOC(=O)N1CCN(c2c(NCCCN(CC)c3cccc(C)c3)c(=O)c2=O)CC1
- cell number change: -6.83%
- AC50 [2]: 0.231 µM [rising, full curve, poor fit]

Compound: Cc1cccc(OC(C)C(=O)Nc2ccc(S(=O)(=O)N3CCCC3)cc2)c1 (stereo unspecified)
- cell number change: -20.2%
- AC50 [2]: 29.1 µM [falling, single point]

Compound: Cc1cc(C)c(NC(=O)COC(=O)Cc2ccsc2)c(C)c1
- cell number change: 22.5%
- AC50 [1]: 0.00651 µM [rising, full curve, poor fit]

Compound: Cc1ccc(C(=O)NCC(=O)O)o1
- cell number change: -37.1%
- AC50 [2]: 23.1 µM [falling, partial curve, poor fit]

Compound: COc1cc(/C=C2\SC(=S)N(CC(=O)O)C2=O)ccc1OC(=O)c1ccco1
- cell number change: -88.6%
- AC50 [1]: 5.8 µM [falling, full curve]
- AC50 [2]: 6.51 µM [rising, partial curve]

Compound: O=C(c1cccc(S(=O)(=O)N2CCCCC2)c1)N(CCc1ccccc1)Cc1ccccc1
- cell number change: 32.8%
- AC50 [1]: 6.51 µM [rising, partial curve]
- AC50 [2]: 7.31 µM [rising, partial curve]

Compound: CCC(CC)NC(=O)c1cccc(Br)c1
- cell number change: 22.5%
- AC50 [2]: 0.291 µM [falling, partial curve, poor fit]

Compound: CC(=O)N1N=C(c2ccc3ccccc3c2)OC1(C)C
- cell number change: -14.1%
- AC50 [2]: 29.1 µM [rising, single point]

Compound: CC(C)(C)c1ccc(OCCNC(=O)Cc2ccc(F)cc2)cc1
- cell number change: 27.7%
- AC50 [2]: 16.4 µM [rising, partial curve]

Compound: O=C(COc1ccc(/C=C2/NC(=O)NC2=O)cc1)Nc1ccc(F)cc1
- cell number change: 30.3%

Compound: CSc1nc2n(n1)C(C)C1=C(CCCC1=O)N2 (stereo unspecified)
- cell number change: -16.6%
- AC50 [2]: 1.84 µM [falling, partial curve]

Compound: COc1ccccc1NS(=O)(=O)c1cc(NC(=O)C2=NNC(=O)CC2)ccc1C
- cell number change: -39.7%
- AC50 [1]: 29.1 µM [falling, partial curve, poor fit]
- AC50 [2]: 1.16 µM [falling, partial curve]

Compound: O=S(=O)(Nc1ccccc1F)c1ccc2nsnc2c1
- cell number change: 15%
- AC50 [2]: 0.731 µM [rising, full curve, poor fit]

Compound: O=C(COC(=O)c1ccc(C(F)(F)F)cc1)NC(=O)NC1CCCC1
- cell number change: -49.3%
- AC50 [1]: 5.17 µM [falling, partial curve, poor fit]
- AC50 [2]: 18.4 µM [falling, single point]

Compound: Cc1cc(F)ccc1S(=O)(=O)N1CCCOC1CNC(=O)C(=O)NCc1ccc2c(c1)OCO2 (stereo unspecified)
- cell number change: 68.4%
- AC50 [1]: 25.9 µM [rising, single point]
- AC50 [2]: 9.2 µM [rising, partial curve]

Compound: Cc1ccc(S(=O)(=O)N2CCN=C2c2ccccc2)cc1C
- cell number change: 28.9%
- AC50 [2]: 13 µM [rising, partial curve]

Compound: CSc1ncccc1C(=O)OCC(=O)NC1CCS(=O)(=O)C1 (stereo unspecified)
- cell number change: -65.4%
- AC50 [1]: 16.4 µM [falling, single point]
- AC50 [2]: 29.1 µM [falling, single point]

Compound: COc1ccc(CNC(=O)CSc2cccc3cccnc23)cc1
- cell number change: 11.2%
- AC50 [1]: 6.51 µM [rising, single point]

Compound: COc1ccc(/C=N/Nc2cc(C)nc3ccccc23)cc1
- cell number change: -54.9%
- AC50 [1]: 9.2 µM [falling, partial curve]
- AC50 [2]: 6.51 µM [falling, single point]

Compound: COc1ccc(NC(=O)CC2C(=O)NCCN2C(=O)c2ccccc2)cc1 (stereo unspecified)
- cell number change: -4.95%
- AC50 [2]: 0.517 µM [falling, full curve]

Compound: Cc1ccc2[nH]c(O)c(N=Nc3ccccc3C)c2c1
- cell number change: 38.7%
- AC50 [1]: 0.0291 µM [rising, full curve, poor fit]

Compound: CCC(C)/C(C)=N/NC(=O)c1ccc(COc2ccc(Cl)c(C)c2)cc1 (stereo unspecified)
- cell number change: 10.5%
- AC50 [2]: 18.4 µM [rising, partial curve, poor fit]
